Measured values from patent US8242240B2, “Anti-inflammatory compounds and uses thereof” (Yale University, priority 2000, dated 2012).
Some entries share one result that the patent states for a list of compounds.

Tested on: mice (lethal Salmonella typhimurium LPS challenge)
Assay: Lethal lipopolysaccharide mouse model
Type: in vivo, male C57BL/6 mice
Protocol: In this experiment, the ability of anti-inflammatory compounds of the invention to rescue mice challenged with a lethal amount of lipopolysaccharide (LPS) was assessed. LPS is a bacterial product that induces many of the responses that are seen in septic patients, including death. In this model, Salmonella typhimurium LPS in phosphate-buffered […] (PBS) was administered to male C57BL/6 mice by intravenous injection at a dose of 30 mg/kg (600 μg/20 g mouse). This dose was established in control experiments to be lethal in 100% of the mice that received it. Mice were treated with the test peptide by intravenous injection (in 1% dimethyl sulfoxide in PBS) immediately prior to the LPS injection and 24 hours after the LPS injection. Mice were monitored twice daily for up to 8 days after receiving LPS and the duration of survival and the number of surviving mice were recorded.

Row | Substance | protection against lethal challenge with LPS (5 mg/kg i.v.) | protection against lethal challenge with LPS (1 mg/kg i.v.)
1 | H-RRMKWKKLDWSWL-NH2 (C-terminal amide; Description of Artificial Sequence: Synthetic NEMO binding domain fused with membrane translocation domain; N-term H modified; C-term NH2 modified) [compound 6] | significant protection | 
2 | H-YARAARRAARRLDWSWL-NH2 (C-terminal amide; Description of Artificial Sequence: Synthetic NEMO binding domain fused with membrane translocation domain; N-term H modified; C-term NH2 modified) [compound 9] | significant protection | 
3 | H-YARAARRAARRTALDWSWLQTE-NH2 (C-terminal amide; Description of Artificial Sequence: Synthetic NEMO binding domain fused with membrane translocation domain; N-term H modified; C-term NH2 modified) [compound 5] | significant protection | 
4 | H-YGRKKRRQRRRLDWSWL-NH2 (C-terminal amide; Description of Artificial Sequence: Synthetic NEMO binding domain fused with membrane translocation domain; N-term H modified; C-term NH2 modified) [compound 11] | significant protection | 
5 | H-YGRKKRRQRRRTALDWSWLQTE-NH2 (C-terminal amide; Description of Artificial Sequence: Synthetic NEMO binding domain fused with membrane translocation domain; N-term H modified; C-term NH2 modified) [compound 2] | significant protection | 
6 | H-rrmkwkkLDWSWL-NH2 (RRMKWKKLDWSWL; D-amino acids; C-terminal amide; Description of Artificial Sequence: Synthetic NEMO binding domain fused with membrane translocation domain; N-term H modified; C-term NH2 modified) [compound 7] | significant protection | 
7 | H-rrrrrrrLDWSWL-NH2 (RRRRRRRLDWSWL; D-arginines; C-terminal amide; Description of Artificial Sequence: Synthetic NEMO binding domain fused with membrane translocation domain; N-term H modified; C-term NH2 modified; D-amino acids) [compound 8] | significant protection | 
8 | H-rrrrrrrTALDWSWLQTE-NH2 (RRRRRRRTALDWSWLQTE; D-arginines; C-terminal amide; Description of Artificial Sequence: Synthetic NEMO binding domain fused with membrane translocation domain; N-term H modified; C-term NH2 modified; D-amino acids) [compound 3] | significant protection | 
9 | H-yaraarraarrLDWSWL-NH2 (YARAARRAARRLDWSWL; D-amino acids in carrier; C-terminal amide; Description of Artificial Sequence: Synthetic NEMO binding domain fused with membrane translocation domain; N-term H modified; C-term NH2 modified; D-amino acids) [compound 10] |  | significant protection
